The other results are listed elsewhere or left out. Most values come without repeats; read them as rough.
Assays:
A2780 = experiment: cell growth inhibition ratio vs untreated control (CCK8); higher = stronger inhibition of cell viability; settings: 10 µM; 48 h
Experimental: (§1)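 Natural product library (Topscience) screened at 10 µM final concentration for 48 h on ovarian cancer A2780 cells and patient-derived ovarian cancer cells (PDC) in 96-well plates; viability read by CCK8 and reported as inhibition ratio (%) relative to untreated control. Single-dose primary screen.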

[1] = test system: patient-derived ovarian cancer cells (PDC); experiment: as above; settings: 10 µM; 48 h
Experimental: as §1

| SMILES | cell growth inhibition ratio (A2780) [%] | cell growth inhibition ratio [1] [%] |
| --- | --- | --- |
| C[C@H]1[C@H](C)CC[C@]2(C(=O)O[C@@H]3O[C@H](CO[C@@H]4O[C@H](CO)[C@@H](O[C@@H]5O[C@@H](C)[C@H](O)[C@@H](O)[C@H]5O)[C@H](O)[C@H]4O)[C@@H](O)[C@H](O)[C@H]3O)CC[C@]3(C)C(=CC[C@@H]4[C@@]5(C)C[C@@H](O)[C@H](O)[C@@](C)(CO)[C@@H]5[C@H](O)C[C@]43C)[C@H]12 [Madecassoside] | 9.12 | -0.141 |
| C=C1C[C@@]23CC[C@H]4[C@@](C)(CCC[C@@]4(C)C(=O)O[C@@H]4O[C@H](CO)[C@@H](O)[C@H](O)[C@H]4O)[C@@H]2CC[C@]1(O[C@@H]1O[C@H](CO)[C@@H](O)[C@H](O[C@@H]2O[C@H](CO)[C@@H](O)[C@H](O)[C@H]2O)[C@H]1O[C@@H]1O[C@H](CO)[C@@H](O)[C@H](O)[C@H]1O)C3 [Rebaudioside A] | 6.75 | 5.34 |
| Cc1ccc(C(C)C)cc2c(C)ccc1-2 [Guaiazulene] | 1.18 | -0.322 |
| CCOC(=O)c1c(C)cc(O)cc1O [Orsellinic acid ethyl ester] | 0.0873 | -18.7 |
| CCOC(=O)c1cc(O)c(O)c(O)c1 [Ethyl gallate] | 5.6 | 9.65 |
| C[C@H](CC[C@@H](O[C@@H]1O[C@H](CO[C@@H]2O[C@H](CO)[C@@H](O)[C@H](O)[C@H]2O)[C@@H](O)[C@H](O)[C@H]1O[C@@H]1O[C@H](CO)[C@@H](O)[C@H](O)[C@H]1O)C(C)(C)O)[C@H]1CC[C@@]2(C)[C@@H]3CC=C4[C@@H](CC[C@H](O[C@@H]5O[C@H](CO[C@@H]6O[C@H](CO)[C@@H](O)[C@H](O)[C@H]6O)[C@@H](O)[C@H](O)[C@H]5O)C4(C)C)[C@]3(C)[C@H](O)C[C@]12C [Mogroside V] | -3.99 | 17.4 |

Source: the supplement of paper PMC10373366
